Results are given in words; binding and its absence hold for the method and conditions named. Some entries that bind do so weakly or less than the wild type.
How the values were obtained:
[1] = target: Zaire ebolavirus full-length GP (Zaire ebolavirus) (UniProt Q05320); experiment: ELISA, plates coated with purified protein
[2] = target: Zaire ebolavirus full-length GP (Zaire ebolavirus) (UniProt Q05320); experiment: ELISA on plates coated with purified full-length Zaire ebolavirus GP, A450

Protein sequences, listed by entry. Tags and fused reporters are not part of them. Residues count along the entry.
UniProt Q05320, residues 33-650: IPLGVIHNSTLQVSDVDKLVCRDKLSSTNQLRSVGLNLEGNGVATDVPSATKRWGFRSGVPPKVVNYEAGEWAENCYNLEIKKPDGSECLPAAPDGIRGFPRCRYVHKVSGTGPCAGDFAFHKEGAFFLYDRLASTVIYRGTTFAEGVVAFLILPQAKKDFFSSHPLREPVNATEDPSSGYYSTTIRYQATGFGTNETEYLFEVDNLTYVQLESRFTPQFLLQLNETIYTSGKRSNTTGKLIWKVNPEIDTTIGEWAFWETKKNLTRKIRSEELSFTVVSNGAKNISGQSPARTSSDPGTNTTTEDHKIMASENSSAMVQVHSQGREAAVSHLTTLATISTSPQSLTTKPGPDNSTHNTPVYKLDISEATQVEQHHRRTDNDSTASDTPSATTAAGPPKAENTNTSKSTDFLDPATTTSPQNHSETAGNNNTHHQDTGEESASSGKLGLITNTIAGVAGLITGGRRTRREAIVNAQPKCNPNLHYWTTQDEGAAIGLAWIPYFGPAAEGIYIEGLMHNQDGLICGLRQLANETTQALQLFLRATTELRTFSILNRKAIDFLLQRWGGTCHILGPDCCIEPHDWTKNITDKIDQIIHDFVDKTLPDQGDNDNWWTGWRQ

B1: S1-4-A09 antibody (IgG1 expressed version) (antibody, V domains shown)
VH: QVQLQESGPGLVKPSETLSLTCVVSGGILSSFYWNWIRQPPGKGLEWIGNIYYSGSPNYNASFQSRVAISVDTSKNQISLNLKSVTAADTAMYYCVRASRAYLWGSYRPTALDLWGQGSLVTVSS
VL: SYELTQPPSVSVSPGQTATITCSGDKLGDKYTSWFQQRPGQSPLLVIYQDNKRPSGLPARFSGSNSGNTATLTISGTQAMDEADYLCQVWDSGAVFGGGTKLTVLG
**Q.** Which results are given for B1?
**A.** binding [1]: binds; binding [2]: binds
